For some assays here: Tags and fusion partners may be left off the protein sequences shown. For some assays here: For at least one entry, the source does not settle the construct or the ends of the probe. For some assays here: Negatives hold for the conditions tested. For some assays here: At least one verdict was read from the data and is not stated in words by the source. For some assays here: Weaker means in comparison with the reference protein, sequence or condition of that experiment.
How the values were obtained:
[1] = molecular target: T1, FOXC2 DBD WT (UniProt Q99958); assay: SELEX-seq (GST pull-down, four rounds, 16-nt random library); settings: pH 7.0; 20 mM HEPES, 140 mM KCl, 0.05 mM TCEP-HCl, pH 7.0, room temperature, 30 min; 2.5 uM GST-FOXC2 DBD, 0.25 uM DNA library; high values mean tight binding; recombinant protein; residues 72-172; protein details: N-terminal GST (pGEX-6P-2); only the motif is given; counted as no binding
T1 sequence (looked up): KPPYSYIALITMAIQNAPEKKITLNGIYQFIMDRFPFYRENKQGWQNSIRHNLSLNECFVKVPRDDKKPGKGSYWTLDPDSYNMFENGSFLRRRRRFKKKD

Protein sequences, listed by entry. Tags and fused reporters are not part of them. Residues count along the entry.
UniProt Q08050, 222-360: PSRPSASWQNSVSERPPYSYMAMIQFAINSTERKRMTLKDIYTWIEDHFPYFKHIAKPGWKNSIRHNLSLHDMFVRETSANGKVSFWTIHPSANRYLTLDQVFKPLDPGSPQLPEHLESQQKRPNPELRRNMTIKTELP

[2] = molecular target: T1, FOXC2 DBD WT; assay: fluorescence anisotropy; settings: 20 mM HEPES, 140 mM KCl, 0.05 mM TCEP-HCl, pH 7.0 or 7.5 (pH titration 6.8-8.2), room temperature 30 min, 7.5 nM FAM-DNA, recombinant protein, residues 72-172, protein details: N-terminal GST (pGEX-6P-2)
[3] = molecular target: FOXM1 DBD WT (UniProt Q08050); assay: fluorescence anisotropy; settings: 20 mM HEPES, 140 mM KCl, 0.05 mM TCEP-HCl, pH 7.0 or 7.5 (pH titration 6.8-8.2), room temperature 30 min, 7.5 nM FAM-DNA, recombinant protein, residues 222-360, protein details: N-terminal GST (pGEX-6P-2)
[4] = molecular target: T2, FOXN1 DBD WT (UniProt O15353); assay: fluorescence anisotropy; settings: 20 mM HEPES, 140 mM KCl, 0.05 mM TCEP-HCl, pH 7.0 or 7.5 (pH titration 6.8-8.2), room temperature 30 min, 7.5 nM FAM-DNA, recombinant protein, residues 270-366, protein details: N-terminal GST (pGEX-6P-2)
T2 sequence (looked up): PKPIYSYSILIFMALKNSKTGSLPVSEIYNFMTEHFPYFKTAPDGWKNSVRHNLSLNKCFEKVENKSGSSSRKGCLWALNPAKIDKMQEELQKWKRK

[5] = pH 7.5, lower affinity than at pH 7.0, label: 6-FAM

ACAAAA (double strand)
binding signal (relative enrichment) [1]: 0.157

GTTACA (double strand)
binding signal (relative enrichment) [1]: 0.146

AGTTAT (double strand)
binding signal (relative enrichment) [1]: 0.194

ACAACT (double strand)
binding signal (relative enrichment) [1]: 0.173

CCATAAACAAC (double strand) [FkhP]
binding result [2, 5]: binds more weakly | binding result [3, 5]: binds more weakly | binding result [4, 5]: binds more weakly

ATTACA (double strand)
binding signal (relative enrichment) [1]: 0.18

AATGTA (double strand)
binding signal (relative enrichment) [1]: 0.193

ACAACA (double strand)
binding signal (relative enrichment) [1]: 0.19

CGACGCGACGC (double strand) [FHL 2x repeat]
binding result [2]: no binding | binding result [3]: no binding | binding result [4]: no binding

AAATTA (double strand)
binding signal (relative enrichment) [1]: 0.196

AAATTT (double strand)
binding signal (relative enrichment) [1]: 0.156

AAAATT (double strand)
binding signal (relative enrichment) [1]: 0.101

ATTATA (double strand)
binding signal (relative enrichment) [1]: 0.196

AAAAGT (double strand)
binding signal (relative enrichment) [1]: 0.183

CAACAA (double strand)
binding signal (relative enrichment) [1]: 0.178

TAACAA (double strand)
binding signal (relative enrichment) [1]: 0.165

Source: publication PMC12135187, “A role for pH dynamics regulating transcription factor DNA-binding selectivity”
